Results: PubChem BioAssay AID504467 (National Center for Advancing Translational Sciences (NCATS), 2011)
About 7,700 (2.3%) of roughly 330,000 compounds were called active. This list was built around the results that the source calls inconclusive (neither active nor inactive); the mix of calls is not that of the screen. Calls come from the whole dose curve; as a rule, active = well fitted inhibition curve with a large enough effect; inconclusive = small, poorly fitted or top-dose-only effect, or effect the other way; inactive = flat fitted curve, though single readings scatter. Where the call is inconclusive, the potency comes from a doubtful curve fit.

Experiment: qHTS screen for small molecules that inhibit ELG1-dependent DNA repair in human embryonic kidney (HEK293T) cells expressing luciferase-tagged ELG1; note: nearly all actives have a fitted effect of over 55% in size
Conditions: HEK293T ELG1-luciferase reporter, luminescence, 16 h, DNA damage induced by 5-fluorouridine; series mostly up to 46.1 µM
Procedure, shortened: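 HEK293T cells expressing luciferase-tagged ELG1 (2,000/well) received 5-Fluorouridine plus compound or DMSO for 16 hr at 37 °C. Luciferase was read by ONE-Glo luminescence after 30 min at room temperature.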
Potency is the fitted concentration of half-maximal effect.

| Compound | Potency |
| --- | --- |
| OC(CNCCC1C=Nc2ccccc21)Cn1c2ccc(Cl)cc2c2cc(Cl)ccc21 (centres undefined) | inconclusive: 23.1 µM [inhibitor, single point] |
| CCCCSc1ncnc2[nH]ncc12 | inactive |
| COc1ccc(C(=O)Nc2cc3c4c(c2)C(C)C(=O)N4CCC3)cc1OC (centres undefined) | inconclusive: 3.66 µM [activator, partial curve] |
| CC(=O)Oc1c(-c2ccc(Br)o2)oc2ccccc2c1=O | inactive |
| O=C(NCc1ccco1)C(c1ccccc1)N(CC1CCCO1)C(=O)Cn1nnc2ccccc21 (centres undefined) | inactive |
| CCN(CC)C(=O)[C@H]1C[C@H](CC(=O)NC/C=C(\C)CCC=C(C)C)C(=O)N2CCc3c([nH]c4cc(CCC(=O)N(C)C)ccc34)[C@]12C | inconclusive: 23.1 µM [inhibitor, single point] |
| COc1ccc(NC(=S)N(CCCN2CCOCC2)Cc2ccco2)cc1 | inactive |
| Cn1c(SCC(=O)c2ccc(F)cc2)ncc(C(=O)Nc2ccccc2)c1=O | inconclusive: 8.91 µM [activator, partial curve, poor fit] |
| CCc1ccc(NC(=S)N2CCN(c3cccc(OC)c3)CC2)cc1 | inconclusive: 25.9 µM [inhibitor, single point] |
| COc1ccc(C(=O)CCc2nc3ccccc3s2)cc1 | inconclusive: 20.6 µM [activator, single point] |
| Cc1cccc2nc(CSc3nnnn3-c3ccccc3)cn12 | inactive |
| CN(C)S(=O)(=O)c1cccc(-c2nnc(SCc3cc(Cl)cc4c3OCOC4)n2N)c1 | inconclusive: 35.5 µM [inhibitor, single point] |
| CC(C)(C)c1ccc(OCCn2ccccc2=O)cc1 | inconclusive: 9.2 µM [activator, partial curve] |
| CCOc1ccc(N(C(=O)c2snc(C(N)=O)c2N)C(C)C(=O)NC2CCCCC2)cc1 (centres undefined) | inconclusive: 29.1 µM [inhibitor, single point] |
| CC(=O)c1ccc(OCC(=O)N(CCC2=CCCCC2)c2c(N)n(Cc3ccccc3)c(=O)[nH]c2=O)cc1 | inconclusive: 13 µM [inhibitor, single point] |
| CCc1noc(C)c1C(=O)N1CC(C)OC(C)C1 (centres undefined) | inactive |
| Cc1ccc(NC(=O)COc2ccc(N(C)C(=O)C(C)(C)C)cc2)cc1S(=O)(=O)N1CCCCC1 | active: 8.2 µM |
| Cc1ccc(OCC(O)CNS(=O)(=O)c2ccccc2C(=O)N2CCCCC2)cc1 (centres undefined) | inconclusive: 32.6 µM [inhibitor, single point] |
| Cc1ccc(NC(=O)CN(C)C(=O)C(C)OC(=O)CNC(=O)c2ccc(Cl)c([N+](=O)[O-])c2)cc1 (centres undefined) | inactive |
| Cc1ccccc1Nc1nc(N)nc(-c2oc3ccccc3c2C)n1 | inconclusive: 2.59 µM [activator, full curve] |
| CCOCC(=O)Nc1nc2ccc(S(C)(=O)=O)cc2s1 | inconclusive: 23.1 µM [activator, partial curve] |
| O=C(NCc1ccccc1Cl)c1ccc2c(=O)n(CC3CCCO3)c(=S)[nH]c2c1 (centres undefined) | inconclusive: 25.9 µM [inhibitor, partial curve] |

Sorted by SMILES length (largest number first): part of the list above

| Compound | Potency |
| --- | --- |
| CC(=O)c1ccc(OCC(=O)N(CCC2=CCCCC2)c2c(N)n(Cc3ccccc3)c(=O)[nH]c2=O)cc1 | inconclusive: 13 µM [inhibitor, single point] |
| Cc1ccc(NC(=O)COc2ccc(N(C)C(=O)C(C)(C)C)cc2)cc1S(=O)(=O)N1CCCCC1 | active: 8.2 µM |
| CCOc1ccc(N(C(=O)c2snc(C(N)=O)c2N)C(C)C(=O)NC2CCCCC2)cc1 (centres undefined) | inconclusive: 29.1 µM [inhibitor, single point] |
| OC(CNCCC1C=Nc2ccccc21)Cn1c2ccc(Cl)cc2c2cc(Cl)ccc21 (centres undefined) | inconclusive: 23.1 µM [inhibitor, single point] |
| Cc1ccc(OCC(O)CNS(=O)(=O)c2ccccc2C(=O)N2CCCCC2)cc1 (centres undefined) | inconclusive: 32.6 µM [inhibitor, single point] |
| CCc1ccc(NC(=S)N2CCN(c3cccc(OC)c3)CC2)cc1 | inconclusive: 25.9 µM [inhibitor, single point] |
| CC(=O)Oc1c(-c2ccc(Br)o2)oc2ccccc2c1=O | inactive |
| CC(C)(C)c1ccc(OCCn2ccccc2=O)cc1 | inconclusive: 9.2 µM [activator, partial curve] |

Further compounds:

| Compound | Potency |
| --- | --- |
| C/C(=N\NC(=O)Cc1csc(N2CCOCC2)n1)c1ccccc1 | inactive |
| Cc1nnc(NC(=O)CSc2ccccn2)s1 | inconclusive: 29.1 µM [activator, partial curve, poor fit] |
| COc1ccc2nc(-c3ccc(N)cc3)[nH]c2c1 | inconclusive: 1.46 µM [activator, full curve] |
| CSc1nc(-c2ccccc2)nc(NC(=O)C(C)C)c1C(C)=O | inconclusive: 18.3 µM [inhibitor, single point] |
| COc1ccc(-c2ccc3c(N)c(C(=O)c4cccc(OC)c4)sc3n2)cc1 | inconclusive: 11.6 µM [activator, partial curve, poor fit] |
| COC(=O)c1ccc(C(=O)NC(=S)Nc2nc3c(s2)CCCC3)cc1 | inconclusive: 18.4 µM [activator, single point] |
| CC(=O)c1ccccc1NC(=O)CCCNC(=O)c1ccc(Cl)cc1 | inactive |
| O=C(OCCOc1ccc(F)cc1)c1ccc(S(=O)(=O)N2CCCC2)cc1 | inactive |
| COc1ccc(N2C(=O)CC(N(C)CCc3ccc(OC)c(OC)c3)C2=O)cc1 (centres undefined) | inactive |
| O=C(NCCc1ccc(Cl)cc1)c1cnccn1 | inconclusive: 29.1 µM [activator, single point] |
| CC(=O)N1CCN(c2ccc(NC(=O)c3cc4ccccc4o3)cc2)CC1 | inconclusive: 35.5 µM [inhibitor, single point] |
| O=[N+]([O-])c1cccc(-c2cnc3ccccc3n2)c1 | inconclusive: 2.59 µM [activator, partial curve] |
| Cc1ccc2cc(CN(Cc3cccs3)Cc3nnnn3CC3CCCO3)c(=O)[nH]c2c1C (centres undefined) | inconclusive: 29.1 µM [inhibitor, single point] |
| CCOc1ccc(N2C(=O)CC(SC(=NC)Nc3ccc4c(c3)OCO4)C2=O)cc1 (centres undefined) | active: 25.9 µM |
| O=C(NC1CC1)C1C2C3C4CC5C3C5C4C12 (centres undefined) | inconclusive: 20.6 µM [activator, single point] |
| O=C(NCc1ccc(-c2nc3ccccc3s2)cc1)c1ccco1 | inconclusive: 23.1 µM [activator, partial curve] |
| Nc1cccc(-c2cnc3ccccc3n2)c1 | inconclusive: 6.51 µM [activator, full curve] |
| O=C(NCCc1c[nH]c2ccccc12)c1cc2ccccc2oc1=O | inconclusive: 13 µM [activator, partial curve] |
| COC(=O)c1ccc(CSc2nnc(Nc3ccccc3OC)s2)o1 | inactive |
| O=C1C2CC=CCC2C(=O)N1c1ccc(OCC(O)Cn2nnc3ccccc32)cc1 (centres undefined) | inconclusive: 20.6 µM [inhibitor, single point] |
| COc1cc(/C=C/C(=O)OCC(=O)Nc2ccccc2Sc2ccc(Cl)cc2)ccc1O | inconclusive: 29.1 µM [inhibitor, single point] |
| COc1ccc(C2=NN(c3ccccc3)C(c3ccc(OC)c(OC)c3)C2)cc1 (centres undefined) | inconclusive: 11.2 µM [activator, partial curve] |
